Laboratory results reported in the supplement of paper PMC11438910.
This is one part of the list. The signal is at background level for most entries.

What was measured:
Assay in all cases: fluorescence intensity of antibody binding to polysaccharide-coupled beads; higher = stronger binding
[1] = target: pneumococcal polysaccharide Pn10A
[2] = target: pneumococcal polysaccharide Pn10B
[3] = target: pneumococcal polysaccharide Pn10C
[4] = target: pneumococcal polysaccharide Pn10F
[5] = target: pneumococcal polysaccharide Pn11A
[6] = target: pneumococcal polysaccharide Pn11B
[7] = target: pneumococcal polysaccharide Pn11C
[8] = target: pneumococcal polysaccharide Pn11D
[9] = target: pneumococcal polysaccharide Pn11F
[10] = target: pneumococcal polysaccharide Pn12A
[11] = target: pneumococcal polysaccharide Pn12B
[12] = target: pneumococcal polysaccharide Pn12F
[13] = target: pneumococcal polysaccharide Pn13
[14] = target: pneumococcal polysaccharide Pn14
[15] = target: pneumococcal polysaccharide Pn15A
[16] = target: pneumococcal polysaccharide Pn15B
[17] = target: pneumococcal polysaccharide Pn15C
[18] = target: pneumococcal polysaccharide Pn15F
[19] = target: pneumococcal polysaccharide Pn16A
[20] = target: pneumococcal polysaccharide Pn16F
[21] = target: pneumococcal polysaccharide Pn17A
[22] = target: pneumococcal polysaccharide Pn17F
[23] = target: pneumococcal polysaccharide Pn18A
[24] = target: pneumococcal polysaccharide Pn18B
[25] = antibody concentration 2337.65 ng/mL
[26] = antibody concentration 12500 ng/mL
[27] = antibody concentration 0.1 ng/mL
[28] = antibody concentration 0.534724 ng/mL
[29] = antibody concentration 2.8593 ng/mL
[30] = antibody concentration 15.2894 ng/mL
[31] = antibody concentration 81.7561 ng/mL
[32] = antibody concentration 437.17 ng/mL

B1: 4-127.1 (protein)
chain 1: QVQLQESGPGLVKPSETLSLTCAVSDYSINTGHGWTWIRQPPGKGLEWIGYIGGSSGSPNYNPSLKSRVTISKDTSKNELSLKLNSVTAADTAVYYCARRIPADRSGNDFWGQGVLVTVSS
chain 2: QSVLTQPPSVSGDPGQRVTISCTGSSSNIGGFYGYWYQQFPGTAPKLLIYDNNKRPSGISDRFSGSKSGTSASLTITGLQPGDEADYYCGSWDSSLSAHVFGSGTKLTVL
B1 was tested, and the fluorescence intensity [1, 25] was 27.2 MFI, the fluorescence intensity [1, 26] was 34 MFI and the fluorescence intensity [2, 27] was 27.2 MFI. For the same binder, the fluorescence intensity [2, 28] was 23.2 MFI, the fluorescence intensity [2, 29] was 25 MFI and the fluorescence intensity [2, 30] was 24.2 MFI. It also gave a fluorescence intensity [2, 31] of 24.2 MFI, a fluorescence intensity [2, 32] of 22.8 MFI and a fluorescence intensity [2, 25] of 25.5 MFI. It also gave a fluorescence intensity [2, 26] of 27 MFI, a fluorescence intensity [3, 27] of 16.5 MFI and a fluorescence intensity [3, 28] of 16 MFI. For the same binder, the fluorescence intensity [3, 29] was 16 MFI, the fluorescence intensity [3, 30] was 16.5 MFI and the fluorescence intensity [3, 31] was 16.5 MFI. The fluorescence intensity [3, 32] was 18.5 MFI, the fluorescence intensity [3, 25] was 18 MFI and the fluorescence intensity [3, 26] was 21 MFI. For the same binder, the fluorescence intensity [4, 27] was 18.5 MFI, the fluorescence intensity [4, 28] was 19.5 MFI and the fluorescence intensity [4, 29] was 20.5 MFI. It also gave a fluorescence intensity [4, 30] of 18.5 MFI, a fluorescence intensity [4, 31] of 21 MFI and a fluorescence intensity [4, 32] of 19.5 MFI. For the same binder, the fluorescence intensity [4, 25] was 20.5 MFI, the fluorescence intensity [4, 26] was 24.5 MFI and the fluorescence intensity [5, 27] was 30 MFI. For the same binder, the fluorescence intensity [5, 28] was 27.5 MFI, the fluorescence intensity [5, 29] was 27.2 MFI and the fluorescence intensity [5, 30] was 28.5 MFI. It also gave a fluorescence intensity [5, 31] of 29.5 MFI, a fluorescence intensity [5, 32] of 29.5 MFI and a fluorescence intensity [5, 25] of 36.5 MFI. It also gave a fluorescence intensity [5, 26] of 50.8 MFI, a fluorescence intensity [6, 27] of 25.5 MFI and a fluorescence intensity [6, 28] of 27.5 MFI. It also gave a fluorescence intensity [6, 29] of 26.8 MFI, a fluorescence intensity [6, 30] of 25.2 MFI and a fluorescence intensity [6, 31] of 26.5 MFI. For the same binder, the fluorescence intensity [6, 32] was 29 MFI, the fluorescence intensity [6, 25] was 28 MFI and the fluorescence intensity [6, 26] was 30.5 MFI. It also gave a fluorescence intensity [7, 27] of 23.8 MFI, a fluorescence intensity [7, 28] of 21.5 MFI and a fluorescence intensity [7, 29] of 21.5 MFI. It also gave a fluorescence intensity [7, 30] of 22 MFI, a fluorescence intensity [7, 31] of 23 MFI and a fluorescence intensity [7, 32] of 22.5 MFI. For the same binder, the fluorescence intensity [7, 25] was 27 MFI, the fluorescence intensity [7, 26] was 60.8 MFI and the fluorescence intensity [8, 27] was 26.5 MFI. For the same binder, the fluorescence intensity [8, 28] was 24.5 MFI, the fluorescence intensity [8, 29] was 23 MFI and the fluorescence intensity [8, 30] was 23.8 MFI. For the same binder, the fluorescence intensity [8, 31] was 22 MFI, the fluorescence intensity [8, 32] was 22.8 MFI and the fluorescence intensity [8, 25] was 25 MFI. For the same binder, the fluorescence intensity [8, 26] was 42.5 MFI, the fluorescence intensity [9, 27] was 14.8 MFI and the fluorescence intensity [9, 28] was 12.8 MFI. It also gave a fluorescence intensity [9, 29] of 14.2 MFI, a fluorescence intensity [9, 30] of 15 MFI and a fluorescence intensity [9, 31] of 14.5 MFI. The fluorescence intensity [9, 32] was 16.5 MFI, the fluorescence intensity [9, 25] was 14 MFI and the fluorescence intensity [9, 26] was 20 MFI. For the same binder, the fluorescence intensity [10, 27] was 15.5 MFI, the fluorescence intensity [10, 28] was 15 MFI and the fluorescence intensity [10, 29] was 14.5 MFI. It also gave a fluorescence intensity [10, 30] of 14.5 MFI, a fluorescence intensity [10, 31] of 17.2 MFI and a fluorescence intensity [10, 32] of 15.8 MFI. It also gave a fluorescence intensity [10, 25] of 17.5 MFI, a fluorescence intensity [10, 26] of 23.5 MFI and a fluorescence intensity [11, 27] of 15 MFI. It also gave a fluorescence intensity [11, 28] of 17 MFI, a fluorescence intensity [11, 29] of 14.5 MFI and a fluorescence intensity [11, 30] of 16.5 MFI. It also gave a fluorescence intensity [11, 31] of 16 MFI, a fluorescence intensity [11, 32] of 15.5 MFI and a fluorescence intensity [11, 25] of 17.5 MFI. It also gave a fluorescence intensity [11, 26] of 26 MFI, a fluorescence intensity [12, 27] of 17.2 MFI and a fluorescence intensity [12, 28] of 19.5 MFI. It also gave a fluorescence intensity [12, 29] of 18 MFI, a fluorescence intensity [12, 30] of 20 MFI and a fluorescence intensity [12, 31] of 18.5 MFI. It also gave a fluorescence intensity [12, 32] of 18.5 MFI, a fluorescence intensity [12, 25] of 22.5 MFI and a fluorescence intensity [12, 26] of 35.5 MFI. For the same binder, the fluorescence intensity [13, 27] was 18 MFI, the fluorescence intensity [13, 28] was 18 MFI and the fluorescence intensity [13, 29] was 19 MFI. For the same binder, the fluorescence intensity [13, 30] was 19.2 MFI, the fluorescence intensity [13, 31] was 19 MFI and the fluorescence intensity [13, 32] was 19 MFI. For the same binder, the fluorescence intensity [13, 25] was 20 MFI, the fluorescence intensity [13, 26] was 26.5 MFI and the fluorescence intensity [14, 27] was 14 MFI. It also gave a fluorescence intensity [14, 28] of 15.5 MFI, a fluorescence intensity [14, 29] of 14.5 MFI and a fluorescence intensity [14, 30] of 12 MFI. For the same binder, the fluorescence intensity [14, 31] was 16 MFI, the fluorescence intensity [14, 32] was 15.5 MFI and the fluorescence intensity [14, 25] was 23.5 MFI. The fluorescence intensity [14, 26] was 75.5 MFI, the fluorescence intensity [15, 27] was 14 MFI and the fluorescence intensity [15, 28] was 13 MFI. For the same binder, the fluorescence intensity [15, 29] was 11.5 MFI, the fluorescence intensity [15, 30] was 13.5 MFI and the fluorescence intensity [15, 31] was 14 MFI. For the same binder, the fluorescence intensity [15, 32] was 12.5 MFI, the fluorescence intensity [15, 25] was 13 MFI and the fluorescence intensity [15, 26] was 15 MFI. The fluorescence intensity [16, 27] was 18.8 MFI, the fluorescence intensity [16, 28] was 18.5 MFI and the fluorescence intensity [16, 29] was 19.5 MFI. The fluorescence intensity [16, 30] was 19.5 MFI, the fluorescence intensity [16, 31] was 20 MFI and the fluorescence intensity [16, 32] was 20.5 MFI. The fluorescence intensity [16, 25] was 23 MFI, the fluorescence intensity [16, 26] was 34.5 MFI and the fluorescence intensity [17, 27] was 17.5 MFI. For the same binder, the fluorescence intensity [17, 28] was 18 MFI, the fluorescence intensity [17, 29] was 16.5 MFI and the fluorescence intensity [17, 30] was 16 MFI. The fluorescence intensity [17, 31] was 17.2 MFI, the fluorescence intensity [17, 32] was 20.5 MFI and the fluorescence intensity [17, 25] was 18.5 MFI. It also gave a fluorescence intensity [17, 26] of 20 MFI, a fluorescence intensity [18, 27] of 16.2 MFI and a fluorescence intensity [18, 28] of 16.8 MFI. The fluorescence intensity [18, 29] was 16.8 MFI, the fluorescence intensity [18, 30] was 17.5 MFI and the fluorescence intensity [18, 31] was 17.5 MFI. For the same binder, the fluorescence intensity [18, 32] was 18.5 MFI, the fluorescence intensity [18, 25] was 18 MFI and the fluorescence intensity [18, 26] was 23.5 MFI. The fluorescence intensity [19, 27] was 17 MFI, the fluorescence intensity [19, 28] was 14 MFI and the fluorescence intensity [19, 29] was 16 MFI. For the same binder, the fluorescence intensity [19, 30] was 14.5 MFI, the fluorescence intensity [19, 31] was 14.2 MFI and the fluorescence intensity [19, 32] was 14.2 MFI. It also gave a fluorescence intensity [19, 25] of 16 MFI, a fluorescence intensity [19, 26] of 18.5 MFI and a fluorescence intensity [20, 27] of 26 MFI. For the same binder, the fluorescence intensity [20, 28] was 23 MFI, the fluorescence intensity [20, 29] was 25.8 MFI and the fluorescence intensity [20, 30] was 24 MFI. For the same binder, the fluorescence intensity [20, 31] was 22 MFI, the fluorescence intensity [20, 32] was 26.5 MFI and the fluorescence intensity [20, 25] was 25 MFI. For the same binder, the fluorescence intensity [20, 26] was 32.5 MFI, the fluorescence intensity [21, 27] was 20 MFI and the fluorescence intensity [21, 28] was 22.2 MFI. It also gave a fluorescence intensity [21, 29] of 21 MFI, a fluorescence intensity [21, 30] of 20.5 MFI and a fluorescence intensity [21, 31] of 21.5 MFI. For the same binder, the fluorescence intensity [21, 32] was 19 MFI, the fluorescence intensity [21, 25] was 22 MFI and the fluorescence intensity [21, 26] was 24 MFI. For the same binder, the fluorescence intensity [22, 27] was 27.5 MFI, the fluorescence intensity [22, 28] was 26 MFI and the fluorescence intensity [22, 29] was 27.2 MFI. For the same binder, the fluorescence intensity [22, 30] was 26.5 MFI, the fluorescence intensity [22, 31] was 25.8 MFI and the fluorescence intensity [22, 32] was 26.2 MFI. It also gave a fluorescence intensity [22, 25] of 27 MFI, a fluorescence intensity [22, 26] of 29.5 MFI and a fluorescence intensity [23, 27] of 25.8 MFI. The fluorescence intensity [23, 28] was 24 MFI, the fluorescence intensity [23, 29] was 25 MFI and the fluorescence intensity [23, 30] was 23 MFI. It also gave a fluorescence intensity [23, 31] of 24.5 MFI, a fluorescence intensity [23, 32] of 23.5 MFI and a fluorescence intensity [23, 25] of 24.5 MFI. The fluorescence intensity [23, 26] was 27.5 MFI, the fluorescence intensity [24, 27] was 29 MFI and the fluorescence intensity [24, 28] was 29.5 MFI.
